Assay results as given in patent publication US20230190689A1, “METHODS AND COMPOSITIONS FOR INDUCING BROWN ADIPOGENESIS” (ENERGESIS PHARMACEUTICALS, INC., priority 2020, published 2023).
For at least one compound, name, drawing or mass did not settle the structure. Some entries repeat one wording, which the source may state once for all of them.

Legend:
Assay type in all cases: cell-based, human
[1] = system: CD34+ brown adipocyte progenitor cells; experiment: Multiplexed TaqMan real-time PCR of UCP1 and PPARγ2 mRNA (normalized to cyclophilin A) to quantify differentiation of CD34+ cells into brown adipocytes
Excerpt: A robust method, previously disclosed, was used for detection of CD34+ cell differentiation into brown adipocytes by simultaneously quantifying mRNA species corresponding to the brown adipocyte marker UCP1, the adipocyte marker PPARγ2, and the “housekeeping” gene cyclophilin A which was used as the internal control.
This method permits analysis of a large number of samples to identify agents that enhance the differentiation of CD34+ cells into brown adipocytes. […]
Quantification of UCP1, PPARγ2 and cyclophilin A mRNA by multiplexed TaqMan real-time PCR was thus used to quantify differentiation of the CD34+ cells into brown adipocytes.
UCP1 is the key protein in brown adipocytes responsible for uncoupled respiration and is also highly specific for brown adipocyte differentiation. […] We used a real-time semi-quantitative RT PCR-based assay for detection of UCP1 expression, in order to screen for brown adipocyte recruiters. […]
Quantitative real-time PCR was performed using an Applied Biosystems StepOnePlus™ instrument, TaqMan Gene Expression Master Mix (Applied Biosystems #4369016), and custom TaqMan gene expression probes and primers for human uncoupling protein-1 “UCP1” (GenBank NM_021833) and for human peptidylprolyl isomerase A “cyclophilin A” (GenBank NM_021130). […]

CD34+ cells [2] = experiment: Quantification of UCP1 protein by fluorescence immunohistochemistry (IHC)
Experimental: Culturing and differentiation of CD34+ cells into brown adipocytes were performed using adipogenic differentiation medium lacking (Minimal Differentiation Medium, MDM) or containing 1 μM rosiglitazone (Reference Differentiation Medium, RDM). After 15 days of differentiation cells were fixed with 4% Paraformaldehyde PBS pH 7.4, and incubated with a UCP1 antibody (Abcam ab23841) and Alexafluor 488 goat anti-rabbit antibody to quantify relative UCP1 levels (green) according to standard protocols. Prior to fixation of cells, nuclei were labeled with 5 μM DAPI (blue) for 10 minutes. Each treatment condition was evaluated in triplicate in a 96-well plate corresponding to approximately 360-480 cells for each data point in total. The InCell 1000 Developer Toolbox software was used to develop an automated cell detection script to measure UCP1 signal intensity, using the nuclei and cytoplasm detection algorithms. As a readout, total intensity of UCP1 signal within the cell was used, normalized to cell number.

CD34+ cells [3] = experiment: Light microscopy of CD34+ cells for brown adipocyte differentiation (multilocular lipid-containing cells); settings: CD34+ cells 6 days following the end of compound treatment and switch into MDM media
Experimental: Cells were seeded at 10,000 per cm^2 (48-well tissue culture, Chemglass #CLS-3500-048), cultured until confluency (1-4 days) at 37° C. in Endothelial cell growth medium-2 (EGM2) (BulletKit growth medium, Lonza #CC-3162) and until differentiation (6-12 more days). After 1-4 days in EGM2 media the cells were incubated with test agents (or positive controls) for 2-3 days (from day −3 or −2 to day 0). Rosiglitazone (1 μM) and rhBMP7 (6.3 nM) were used as reference agents (positive controls). Then (on day 0) the culture media (containing the test agents or positive controls) was removed, and minimal adipogenic medium (MDM) was added and the cells were left to differentiate of 6-12 days. The MDM media is a modification of the adipogenic media described by Rodriguez et al., and contains: DMEM/Ham's F-12 50/50 Mix (3.151 g/1, 17.5 mM D-glucose, 3.651 g/l L-glutamine) (Cellgro #10-090-CV), 5 μg/ml (0.86 μM) insulin, 1 μM dexamethasone, 100 μM 3-isobutyl-1-methylxanthine, 0.2 nM 3,3′,5-triiodo-L-thyronine, 10 μg/ml (127 nM) transferrin, and 1% penicillin-streptomycin. Adipocyte scores were determined by light microscopy and defined as the number of cells, on a per well basis, that contain multilocular lipid droplets, at the end of the differentiation of the cells, approximately 6 to 12 days following the end of compound treatment and switch into MDM media. […]

## CC(/C=C1\SC(=S)N(CC(=O)O)C1=O)=C\c1ccccc1 [Epalrestat]
[1]; in vitro, first screen at 10 μM, actives retested at 1 nM to 50 μM
  differentiation of brown adipocyte progenitor cells into brown adipocytes, as indicated by expression of UCP1 and PPARγ2: promote the differentiation of brown adipocyte progenitor cells into brown adipocytes

## CCOC(=O)C1=C(C)NC(C)=C(C(=O)OC)C1c1cccc(Cl)c1Cl (stereo not drawn) [Felodipine]
CD34+ cells [2]
  agents identified by quantification of UCP1 protein by fluorescence IHC: identified using this technique

## Nc1cc(N2CCCCC2)nc(N)[n+]1[O-] [Minoxidil]
CD34+ cells [2]
  agents identified by quantification of UCP1 protein by fluorescence IHC: identified using this technique

## CC1(COc2ccc(CC3SC(=O)NC3=O)cc2)CCCCC1 (stereo not drawn) [ciglitazone]
[1]; positive controls
  response of the UCP1/PPARγ2 RT-PCR assay to positive controls: appropriate dose-responsive behavior

## CN(CCOc1ccc(CC2SC(=O)NC2=O)cc1)c1ccccn1 (stereo not drawn) [rosiglitazone]
CD34+ cells [3]
  brown adipocyte formation by light microscopy: promote brown adipocyte formation
CD34+ cells [2]; 1 μM, CD34+ cells differentiated for 8 days in MDM
  UCP1 protein expression and differentiation into brown adipocytes (IHC): differentiate profoundly into brown adipocytes expressing high levels of UCP1
